Experimental data: the supplement of paper PMC7024190
Structures can show the parent of a compound that is named as a salt. The list shows a part of the results. Repeats in this data set agree poorly, so a single value says little.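 Human embryonic kidney cells were transiently transfected with a plasmid bearing a Renilla luciferase gene under the HSV-TK promoter. This first-round screen tests roughly ten thousand compounds for ones that increase reporter output.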

system: HEK 293FT; experiment: log relative Renilla luciferase luminescence (reporter expression vs reference, reference not stated) (log (base not stated)); higher = higher recombinant reporter expression; details: 10 µM; time after transfection 48 h

SMILES	log
C#C[C@]1(OC(C)=O)CC[C@H]2[C@@H]3CCC4=CC(=NO)CC[C@@H]4[C@H]3CC[C@@]21CC (mixture of isomers) [norgestimate]	0.0336
O=C1c2ccccc2C(=O)C1c1ccc(Cl)cc1 [chlorindione]	0.0913
COc1ccc2cc([C@H](C)CO)ccc2c1 [naproxol]	0.168
CC(=O)O[C@]1(C(C)=O)CC[C@H]2[C@@H]3C=C(Cl)C4=CC(=O)[C@@H]5C[C@@H]5[C@]4(C)[C@H]3CC[C@@]21C [cyproterone acetate]	-0.0934
Clc1ccc(CO/N=C(\Cn2ccnc2)c2ccc(Cl)cc2Cl)c(Cl)c1 [oxiconazole nitrate]	0.0176
CCCCC(CC)CCC(CC(C)C)OS(=O)(=O)O (stereo not given) [sodium tetradecyl sulfate]	0.0888
O=C(O)COCCN1CCN(C(c2ccccc2)c2ccc(Cl)cc2)CC1 (stereo not given) [cetirizine hydrochloride]	0.203
N[C@@H]1CONC1=O [cycloserine (d)]	-0.118
CCCCCCCCCCCCCCCC(=O)OC[C@@H](NC(=O)C(Cl)Cl)[C@H](O)c1ccc([N+](=O)[O-])cc1 [chloramphenicol palmitate]	-0.262
COc1cc2nc(N(C)CCCNC(=O)C3CCCO3)nc(N)c2cc1OC (stereo not given) [alfuzosin hydrochloride]	0.147
Clc1ccc(Cn2c(CN3CCCC3)nc3ccccc32)cc1 [clemizole hydrochloride]	0.0025
O=C(O)/C=C/c1ccc(O)c(O)c1 [caffeic acid]	0.0557
CC(=O)Oc1ccccc1C(=O)O [aspirin]	0.0629
O=c1cc(-c2ccccc2)oc2cc(O)ccc12 [7-hydroxyflavone]	0.144
CC1=C(/C=C/C(C)=C/C=C/C(C)=C/C=C/C=C(C)/C=C/C=C(C)/C=C/C2=C(C)C(=O)[C@@H](O)CC2(C)C)C(C)(C)C[C@H](O)C1=O [astaxanthin]	0.274
N=C(N)NS(=O)(=O)c1ccc(N)cc1 [sulfaguanidine]	0.0391
NC[C@@H]1CC[C@@H](N)[C@@H](O[C@H]2[C@H](O)[C@@H](O[C@H]3O[C@H](CO)[C@@H](O)[C@H](N)[C@H]3O)[C@H](N)C[C@@H]2N)O1 [dibekacin]	0.0113
CC1=C(/C=C/C(C)=C/C=C/C(C)=C/C(=O)O)C(C)(C)CCC1 [tretinoin]	-0.0233
CCc1c(C)[nH]c2c1C(=O)C(CN1CCOCC1)CC2 (stereo not given) [molindone hydrochloride]	-0.198
COc1cc(C(=O)NCCCCCC(=O)O)cc(OC)c1OC [capobenic acid]	0.129
CC1=C(C(=O)O)N2C(=O)[C@@H](NC(=O)[C@H](N)C3=CCC=CC3)[C@H]2SC1 [cephradine]	-0.083
N[C@@H](CCC(=O)N[C@@H](CS)C(=O)NCC(=O)O)C(=O)O [glutathione]	-0.0407
CC1(C)[C@H](C(=O)O)N2C(=O)C[C@H]2S1(=O)=O [sulbactam]	-0.0849
COc1cc2c3cc1Oc1cc(ccc1O)C[C@@H]1c4c(cc(OC)c(O)c4Oc4ccc(cc4)C[C@@H]3N(C)CC2)CC[N+]1(C)C [tubocurarine chloride]	-1.24

SMILES	log
Cc1ncc(CO)c(CO)c1O [pyridoxine]	0.115
C[C@]12CC[C@@H]3c4ccc(O)cc4CC[C@H]3[C@@H]1CC[C@@H]2O [estradiol]	-0.175
CCCN(CCC)S(=O)(=O)c1ccc(C(=O)O)cc1 [probenecid]	-0.118
CCN(CC)C(=O)c1cccc(C)c1 [diethyltoluamide]	-0.102
CCN(CC)C(=O)c1cccnc1 [nikethamide]	0.0147
COc1ccc(-c2coc3c(O)c(OC)ccc3c2=O)cc1 [retusin 7-methyl ether]	0.127
COc1ccc2[nH]c([S+]([O-])Cc3ncc(C)c(OC)c3C)nc2n1 (stereo not given) [tenatoprazole]	-0.0246
O=C(O)CCCCC(=O)O [adipic acid]	-0.00497
CN(C)CCOC(c1ccccc1)c1ccccc1 [diphenhydramine hydrochloride]	-0.041
CC(=O)[C@H]1CC[C@H]2[C@@H]3CCC4=CC(=O)CC[C@]4(C)[C@H]3CC[C@]12C [progesterone]	0.0103
CN(C)CC/C=C1/c2ccccc2Sc2ccc(Cl)cc21 [chlorprothixene hydrochloride]	-0.118
CC(=O)O[C@H]1C[C@@H](OC(C)=O)C(C)(C)[C@@H]2C[C@@H](OC(C)=O)[C@]3(C)[C@H](CC[C@@]4(C)[C@H](c5ccoc5)OC(=O)[C@H]5O[C@@]534)[C@@]12C [khivorin]	0.187
N[C@@H](Cc1cc(I)c(Oc2cc(I)c(O)c(I)c2)c(I)c1)C(=O)O [levothyroxine]	-0.0702
Cc1cc(=O)oc2cc(O)c(O)cc12 [4-methylesculetin]	0.0324
COc1cc(O)c(C(C)=O)c(O)c1 [4-o-methylphloracetophenone]	0.143
N=C(N)NC(=O)Cc1c(Cl)cccc1Cl [guanfacine hydrochloride]	0.187
CCCCCCCCCC(=O)N[C@@H](Cc1c[nH]c2ccccc12)C(=O)N[C@@H](CC(N)=O)C(=O)N[C@@H](CC(=O)O)C(=O)N[C@@H]1C(=O)NCC(=O)N[C@@H](CCCN)C(=O)N[C@@H](CC(=O)O)C(=O)N[C@H](C)C(=O)N[C@@H](CC(=O)O)C(=O)NCC(=O)N[C@H](CO)C(=O)N[C@@H]([C@H](C)CC(=O)O)C(=O)N[C@@H](CC(=O)c2ccccc2N)C(=O)O[C@@H]1C [daptomycin (5 millimolar/dmso)]	0.0843
COc1cc(O)c(C(=O)c2ccccc2)cc1S(=O)(=O)O [sulisobenzone]	-0.0557
O=C(O)CCCCCCCCCCCC[C@@H]1C=CCC1 [chaulmoogric acid]	0.134
COc1cc(OC)c2c(=O)c(O)c(-c3ccc(OC)c(OC)c3)oc2c1 [quercetin 5,7,3',4'-tetramethyl ether]	-0.0745
CNCc1ccccc1 [n-methylbenzylamine hydrochloride]	-0.167
CN1C(=O)CC(c2ccccc2)C1=O (stereo not given) [phensuccimide]	-0.0467
CC(O)C(=O)O.N (stereo not given) [ammonium lactate]	-0.0307
CN(C)CCN(Cc1ccccc1)c1ccccn1 [tripelennamine citrate]	-0.244

Among those listed so far, five have four or more nitrogen atoms:
SMILES	log
COc1cc2nc(N(C)CCCNC(=O)C3CCCO3)nc(N)c2cc1OC (stereo not given) [alfuzosin hydrochloride]	0.147
N=C(N)NS(=O)(=O)c1ccc(N)cc1 [sulfaguanidine]	0.0391
NC[C@@H]1CC[C@@H](N)[C@@H](O[C@H]2[C@H](O)[C@@H](O[C@H]3O[C@H](CO)[C@@H](O)[C@H](N)[C@H]3O)[C@H](N)C[C@@H]2N)O1 [dibekacin]	0.0113
COc1ccc2[nH]c([S+]([O-])Cc3ncc(C)c(OC)c3C)nc2n1 (stereo not given) [tenatoprazole]	-0.0246
CCCCCCCCCC(=O)N[C@@H](Cc1c[nH]c2ccccc12)C(=O)N[C@@H](CC(N)=O)C(=O)N[C@@H](CC(=O)O)C(=O)N[C@@H]1C(=O)NCC(=O)N[C@@H](CCCN)C(=O)N[C@@H](CC(=O)O)C(=O)N[C@H](C)C(=O)N[C@@H](CC(=O)O)C(=O)NCC(=O)N[C@H](CO)C(=O)N[C@@H]([C@H](C)CC(=O)O)C(=O)N[C@@H](CC(=O)c2ccccc2N)C(=O)O[C@@H]1C [daptomycin (5 millimolar/dmso)]	0.0843

(next part)

SMILES	log
C=CC1=C(C)c2cc3[nH]c(cc4nc(cc5[nH]c(cc1n2)c(C)c5CCC(=O)O)C(CCC(=O)O)=C4C)c(C)c3C=C [protoporphyrin ix]	-0.208
CC(=O)O[C@@]12CO[C@@H]1C[C@H](O)[C@@]1(C)C(=O)[C@H](O)C3=C(C)[C@@H](OC(=O)[C@H](O)[C@@H](NC(=O)OC(C)(C)C)c4ccccc4)C[C@@](O)([C@@H](OC(=O)c4ccccc4)[C@H]21)C3(C)C [docetaxel]	0.111
Nc1ncnc2c1ncn2[C@@H]1O[C@H](CO)[C@@H](O)[C@H]1O [adenosine]	-0.0298
Clc1ccc(CSC(Cn2ccnc2)c2ccc(Cl)cc2Cl)cc1 (stereo not given) [sulconazole nitrate]	-0.153
C[n+]1cc2c3c(ccc2c2ccc4cc5c(cc4c21)OCO5)OCO3 [sanguinarine sulfate]	-0.162
COc1ccc2c(c1)OCC(Cc1ccc(O)c(OC)c1)C2=O (stereo not given) [deoxysappanone b 7,3'-dimethyl ether]	0.0993
COc1ccc2oc(-c3ccccc3OC)cc(=O)c2c1 [6,2'-dimethoxyflavone]	-0.0423
Fc1ccc(C(c2ccc(F)cc2)N2CCN(C/C=C/c3ccccc3)CC2)cc1 [flunarizine hydrochloride]	0.14
CN1CCc2c(c3ccccc3n2Cc2ccccc2)C1 [mebhydrolin naphthalenesulfonate]	0.0534
Cc1ccc(Nc2c(F)cccc2Cl)c(CC(=O)O)c1 [lumiracoxib]	0.00335
CC(=O)Nc1cc2ccccc2oc1=O [3-acetamidocoumarin]	0.0535
COc1ccc(/C=C/C(=O)O)cc1OC [dimethylcaffeic acid]	-0.00986
CCCCC(=O)O[C@H]1CC[C@H]2[C@@H]3CCc4cc(O)ccc4[C@H]3CC[C@]12C [estradiol valerate]	0.00551
N=C(N)c1ccc(OCCCCCOc2ccc(C(=N)N)cc2)cc1 [pentamidine isethionate]	0.15
O=C(OC[C@H]1O[C@@H](OC(=O)c2cc(O)c(O)c(OC(=O)c3cc(O)c(O)c(O)c3)c2)[C@H](OC(=O)c2cc(O)c(O)c(OC(=O)c3cc(O)c(O)c(O)c3)c2)[C@@H](OC(=O)c2cc(O)c(O)c(OC(=O)c3cc(O)c(O)c(O)c3)c2)[C@@H]1OC(=O)c1cc(O)c(O)c(OC(=O)c2cc(O)c(O)c(O)c2)c1)c1cc(O)c(O)c(OC(=O)c2cc(O)c(O)c(O)c2)c1 [tannic acid]	-0.394
OCCOCCN1CCN(C2=Nc3ccccc3Sc3ccccc32)CC1 [quetiapine]	0.069
Cc1cc(O)c(C)c(O)c1C(=O)O [3-methylorsellinic acid]	0.0874
COc1cccc2c1C(=O)c1c(O)c3c(c(O)c1C2=O)C[C@@](O)(C(=O)CO)C[C@@H]3O[C@H]1C[C@H](N)[C@H](O)[C@H](C)O1 [doxorubicin]	-1.42
CC1(C)S[C@@H]2[C@H](NC(=O)[C@H](N)c3ccc(O)cc3)C(=O)N2[C@H]1C(=O)O [amoxicillin]	-0.292
N=C(N)NC(=N)Nc1ccccc1 [1-phenylbiguanide hydrochloride]	-0.182
Cc1ccc2c(Br)cc(Br)c(OC(=O)c3ccccc3)c2n1 [broxaldine]	-0.282
CN[C@@H]1[C@H](O[C@H]2[C@H](O[C@H]3[C@H](O)[C@@H](O)[C@H](N=C(N)N)[C@@H](O)[C@@H]3N=C(N)N)O[C@@H](C)[C@]2(O)C=O)O[C@@H](CO)[C@H](O)[C@H]1O [streptomycin sulfate]	-0.0561
